Data: patent US20220401589A1, “PRE-TARGETING IMAGING AGENTS” (Eli Lilly and Company, priority 2019, published 2022)
Further values from the same series stand in other lists.

Assay: Dynamic PET-CT imaging, tracer uptake in brain, muscle and bone
Assay type: in vivo, Male CD-1 mice
Procedure: PET-CT imaging of [^18F]—N-(4-(1,2,4,5-tetrazin-3-yl)benzyl)-4-fluorobenzamide
A Siemens Inveon® Multimodality Scanner (Siemens, Germany) is used for micro PET/CT imaging. Male CD-1 (6-week-old, ˜30 g) mice are anesthetized with 3% isoflurane/97% oxygen and placed on the bed of the scanner. The mice are administered [^18F]—N-(4-(1,2,4,5-tetrazin-3-yl)benzyl)-4-fluorobenzamide via a bolus intravenous tail vein injection (˜[…] in a total volume of 200 μL saline). A total of six (four 60 min and two 90 min) dynamic PET scans are conducted, followed by a short high-resolution CT scan for anatomical registration. PET images are generated for each minute of the acquisition time. Uptake of the tracer in the brain, muscle, and bone are determined by visually drawing regions of interest (ROIs) based on the fused PET/CT images and the corresponding activity values are determined using the Inveon® Research Workplace software. All values are represented as % injected dose per gram (% ID/g).
Bone uptake throughout the scan period remained low, consistent with an absence of defluorination for this tracer. Results of the 90 min scans are similar to the 60 min scan results with peak brain uptake observed at 3.4% ID/g at 2.5 min post injection followed by an immediate wash out to 0.6% ID/g by 59.5 min. Residual uptake is also observed throughout the body of the mouse. Time activity curves are generated for [^18F]—N-(4-(1,2,4,5-tetrazin-3-yl)benzyl)-4-fluorobenzamide in CD-1 male mice (n=4). Data is shown in graphical format in FIGS. 1A and 1B and in tabular format below.

[1] = 90-minute PET scan, time 59.5 min
[2] = 90-minute PET scan, time 60.5 min
[3] = 90-minute PET scan, time 61.5 min
[4] = 90-minute PET scan, time 62.5 min
[5] = 90-minute PET scan, time 63.5 min
[6] = 90-minute PET scan, time 64.5 min
[7] = 90-minute PET scan, time 65.5 min
[8] = 90-minute PET scan, time 66.5 min
[9] = 90-minute PET scan, time 67.5 min
[10] = 90-minute PET scan, time 68.5 min
[11] = 90-minute PET scan, time 69.5 min
[12] = 90-minute PET scan, time 70.5 min
[13] = 90-minute PET scan, time 71.5 min
[14] = 90-minute PET scan, time 72.5 min
[15] = 90-minute PET scan, time 73.5 min
[16] = 90-minute PET scan, time 74.5 min
[17] = 90-minute PET scan, time 75.5 min
[18] = 90-minute PET scan, time 76.5 min
[19] = 90-minute PET scan, time 77.5 min
[20] = 90-minute PET scan, time 78.5 min
[21] = 90-minute PET scan, time 79.5 min
[22] = 90-minute PET scan, time 80.5 min
[23] = 90-minute PET scan, time 81.5 min
[24] = 90-minute PET scan, time 82.5 min
[25] = 90-minute PET scan, time 83.5 min
[26] = 90-minute PET scan, time 84.5 min
[27] = 90-minute PET scan, time 85.5 min
[28] = 90-minute PET scan, time 86.5 min
[29] = 90-minute PET scan, time 87.5 min
[30] = 90-minute PET scan, time 88.5 min
[31] = 90-minute PET scan, time 89.4 min
[32] = 60 minute PET scan, time 0.5 min
[33] = 60 minute PET scan, time 1.5 min
[34] = 60 minute PET scan, time 34.5 min
[35] = 60 minute PET scan, time 35.5 min
[36] = 60 minute PET scan, time 36.5 min
[37] = 60 minute PET scan, time 37.5 min
[38] = 60 minute PET scan, time 38.5 min
[39] = 60 minute PET scan, time 39.5 min
[40] = 60 minute PET scan, time 40.5 min
[41] = 60 minute PET scan, time 41.5 min
[42] = 60 minute PET scan, time 42.5 min
[43] = 60 minute PET scan, time 43.5 min
[44] = 60 minute PET scan, time 44.5 min
[45] = 60 minute PET scan, time 45.5 min
[46] = 60 minute PET scan, time 46.5 min
[47] = 60 minute PET scan, time 47.5 min
[48] = 60 minute PET scan, time 48.5 min
[49] = 60 minute PET scan, time 49.5 min
[50] = 60 minute PET scan, time 50.5 min
[51] = 60 minute PET scan, time 51.5 min
[52] = 60 minute PET scan, time 52.5 min
[53] = 60 minute PET scan, time 53.5 min
[54] = 60 minute PET scan, time 54.5 min
[55] = 60 minute PET scan, time 55.5 min
[56] = 60 minute PET scan, time 56.5 min
[57] = 60 minute PET scan, time 57.5 min
[58] = 60 minute PET scan, time 58.5 min
[59] = 60 minute PET scan, time 59.5 min

Muscle Mean (90-minute PET scan, time 58.5 min): 0.67 % ID/g | Bone Mean [1]: 0.58 % ID/g | Brain Mean [1]: 0.62 % ID/g | Muscle Mean [1]: 0.63 % ID/g | Bone Mean [2]: 0.70 % ID/g | Brain Mean [2]: 0.62 % ID/g | Muscle Mean [2]: 0.63 % ID/g | Bone Mean [3]: 0.76 % ID/g | Brain Mean [3]: 0.62 % ID/g | Muscle Mean [3]: 0.65 % ID/g | Bone Mean [4]: 0.79 % ID/g | Brain Mean [4]: 0.62 % ID/g | Muscle Mean [4]: 0.65 % ID/g | Bone Mean [5]: 0.79 % ID/g | Brain Mean [5]: 0.62 % ID/g | Muscle Mean [5]: 0.69 % ID/g | Bone Mean [6]: 0.65 % ID/g | Brain Mean [6]: 0.62 % ID/g | Muscle Mean [6]: 0.57 % ID/g | Bone Mean [7]: 0.66 % ID/g | Brain Mean [7]: 0.62 % ID/g | Muscle Mean [7]: 0.63 % ID/g | Bone Mean [8]: 0.79 % ID/g | Brain Mean [8]: 0.62 % ID/g | Muscle Mean [8]: 0.69 % ID/g | Bone Mean [9]: 0.89 % ID/g | Brain Mean [9]: 0.63 % ID/g | Muscle Mean [9]: 0.70 % ID/g | Bone Mean [10]: 0.71 % ID/g | Brain Mean [10]: 0.64 % ID/g | Muscle Mean [10]: 0.64 % ID/g | Bone Mean [11]: 0.68 % ID/g | Brain Mean [11]: 0.64 % ID/g | Muscle Mean [11]: 0.63 % ID/g | Bone Mean [12]: 0.53 % ID/g | Brain Mean [12]: 0.63 % ID/g | Muscle Mean [12]: 0.61 % ID/g | Bone Mean [13]: 0.82 % ID/g | Brain Mean [13]: 0.63 % ID/g | Muscle Mean [13]: 0.67 % ID/g | Bone Mean [14]: 0.74 % ID/g | Brain Mean [14]: 0.64 % ID/g | Muscle Mean [14]: 0.65 % ID/g | Bone Mean [15]: 0.73 % ID/g | Brain Mean [15]: 0.64 % ID/g | Muscle Mean [15]: 0.68 % ID/g | Bone Mean [16]: 0.72 % ID/g | Brain Mean [16]: 0.65 % ID/g | Muscle Mean [16]: 0.68 % ID/g | Bone Mean [17]: 0.67 % ID/g | Brain Mean [17]: 0.66 % ID/g | Muscle Mean [17]: 0.63 % ID/g | Bone Mean [18]: 0.58 % ID/g | Brain Mean [18]: 0.65 % ID/g | Muscle Mean [18]: 0.68 % ID/g | Bone Mean [19]: 0.63 % ID/g | Brain Mean [19]: 0.65 % ID/g | Muscle Mean [19]: 0.66 % ID/g | Bone Mean [20]: 0.71 % ID/g | Brain Mean [20]: 0.64 % ID/g | Muscle Mean [20]: 0.63 % ID/g | Bone Mean [21]: 0.51 % ID/g | Brain Mean [21]: 0.65 % ID/g | Muscle Mean [21]: 0.69 % ID/g | Bone Mean [22]: 0.70 % ID/g | Brain Mean [22]: 0.65 % ID/g | Muscle Mean [22]: 0.66 % ID/g | Bone Mean [23]: 0.56 % ID/g | Brain Mean [23]: 0.66 % ID/g | Muscle Mean [23]: 0.66 % ID/g | Bone Mean [24]: 0.76 % ID/g | Brain Mean [24]: 0.65 % ID/g | Muscle Mean [24]: 0.68 % ID/g | Bone Mean [25]: 0.77 % ID/g | Brain Mean [25]: 0.65 % ID/g | Muscle Mean [25]: 0.68 % ID/g | Bone Mean [26]: 0.70 % ID/g | Brain Mean [26]: 0.66 % ID/g | Muscle Mean [26]: 0.70 % ID/g | Bone Mean [27]: 0.57 % ID/g | Brain Mean [27]: 0.65 % ID/g | Muscle Mean [27]: 0.67 % ID/g | Bone Mean [28]: 0.59 % ID/g | Brain Mean [28]: 0.66 % ID/g | Muscle Mean [28]: 0.68 % ID/g | Bone Mean [29]: 0.76 % ID/g | Brain Mean [29]: 0.66 % ID/g | Muscle Mean [29]: 0.71 % ID/g | Bone Mean [30]: 0.81 % ID/g | Brain Mean [30]: 0.66 % ID/g | Muscle Mean [30]: 0.66 % ID/g | Bone Mean [31]: 0.76 % ID/g | Brain Mean [31]: 0.66 % ID/g | Muscle Mean [31]: 0.70 % ID/g | Bone Mean (60 minute PET scan, time 0 min): 0 % ID/g | Brain Mean (60 minute PET scan, time 0 min): 0 % ID/g | Muscle Mean (60 minute PET scan, time 0 min): 0 % ID/g | Bone Mean [32]: 0.08 % ID/g | Brain Mean [32]: 0.32 % ID/g | Muscle Mean [32]: 0.02 % ID/g | Bone Mean [33]: 0.97 % ID/g | Brain Mean [33]: 3.67 % ID/g | Muscle Mean [33]: 0.84 % ID/g | Bone Mean [34]: 0.87 % ID/g | Muscle Mean [34]: 0.92 % ID/g | Bone Mean [35]: 0.84 % ID/g | Brain Mean [35]: 1.03 % ID/g | Muscle Mean [35]: 0.91 % ID/g | Bone Mean [36]: 0.84 % ID/g | Brain Mean [36]: 1.00 % ID/g | Muscle Mean [36]: 0.93 % ID/g | Bone Mean [37]: 0.90 % ID/g | Brain Mean [37]: 0.98 % ID/g | Muscle Mean [37]: 0.91 % ID/g | Bone Mean [38]: 0.87 % ID/g | Brain Mean [38]: 0.97 % ID/g | Muscle Mean [38]: 0.93 % ID/g | Bone Mean [39]: 0.85 % ID/g | Brain Mean [39]: 0.97 % ID/g | Muscle Mean [39]: 0.97 % ID/g | Bone Mean [40]: 0.89 % ID/g | Brain Mean [40]: 0.95 % ID/g | Muscle Mean [40]: 0.93 % ID/g | Bone Mean [41]: 0.93 % ID/g | Brain Mean [41]: 0.93 % ID/g | Muscle Mean [41]: 0.89 % ID/g | Bone Mean [42]: 0.88 % ID/g | Brain Mean [42]: 0.93 % ID/g | Muscle Mean [42]: 0.95 % ID/g | Bone Mean [43]: 0.75 % ID/g | Brain Mean [43]: 0.91 % ID/g | Muscle Mean [43]: 0.88 % ID/g | Bone Mean [44]: 0.87 % ID/g | Brain Mean [44]: 0.90 % ID/g | Muscle Mean [44]: 0.91 % ID/g | Bone Mean [45]: 0.86 % ID/g | Brain Mean [45]: 0.89 % ID/g | Muscle Mean [45]: 0.95 % ID/g | Bone Mean [46]: 0.79 % ID/g | Brain Mean [46]: 0.87 % ID/g | Muscle Mean [46]: 0.92 % ID/g | Bone Mean [47]: 0.87 % ID/g | Brain Mean [47]: 0.87 % ID/g | Muscle Mean [47]: 0.95 % ID/g | Bone Mean [48]: 0.86 % ID/g | Brain Mean [48]: 0.86 % ID/g | Muscle Mean [48]: 0.86 % ID/g | Bone Mean [49]: 0.87 % ID/g | Brain Mean [49]: 0.86 % ID/g | Muscle Mean [49]: 0.99 % ID/g | Bone Mean [50]: 0.90 % ID/g | Brain Mean [50]: 0.85 % ID/g | Muscle Mean [50]: 0.91 % ID/g | Bone Mean [51]: 0.92 % ID/g | Brain Mean [51]: 0.85 % ID/g | Muscle Mean [51]: 0.88 % ID/g | Bone Mean [52]: 0.85 % ID/g | Brain Mean [52]: 0.84 % ID/g | Muscle Mean [52]: 0.81 % ID/g | Bone Mean [53]: 0.85 % ID/g | Brain Mean [53]: 0.85 % ID/g | Muscle Mean [53]: 0.96 % ID/g | Bone Mean [54]: 0.80 % ID/g | Brain Mean [54]: 0.84 % ID/g | Muscle Mean [54]: 0.91 % ID/g | Bone Mean [55]: 0.85 % ID/g | Brain Mean [55]: 0.83 % ID/g | Muscle Mean [55]: 0.87 % ID/g | Bone Mean [56]: 0.93 % ID/g | Brain Mean [56]: 0.82 % ID/g | Muscle Mean [56]: 0.91 % ID/g | Bone Mean [57]: 0.84 % ID/g | Brain Mean [57]: 0.82 % ID/g | Muscle Mean [57]: 0.82 % ID/g | Bone Mean [58]: 0.89 % ID/g | Brain Mean [58]: 0.81 % ID/g | Muscle Mean [58]: 0.83 % ID/g | Bone Mean [59]: 0.88 % ID/g | Brain Mean [59]: 0.82 % ID/g | Muscle Mean [59]: 0.88 % ID/g
SMILES: O=C(NCc1ccc(-c2nncnn2)cc1)c1ccc([18F])cc1 [[^18F]—N-(4-(1,2,4,5-tetrazin-3-yl)benzyl)-4-fluorobenzamide]
